Some results were stated once for a whole list of compounds, not compound by compound. For at least one compound, name, drawing or mass did not settle the structure.
Columns and labels:
[1] = tested on: diamondback moth (Plutella xylostella); assay: Test A: control of diamondback moth on radish plant, foliar spray; assay type: in vivo; conditions: neonate larvae on radish plant, 6 days, 25° C., visually assessed
[2] = tested on: potato leafhopper (Empoasca fabae); assay: Test F: control of potato leafhopper on Soleil bean plant, contact and/or systemic; assay type: in vivo; conditions: adults on Soleil bean plant, 6 days, 24° C.
Procedure: Test compounds were formulated using a solution containing 10% acetone, 90% water and 300 ppm X-77® Spreader Lo-Foam Formula non-ionic surfactant containing alkylarylpolyoxyethylene, free fatty acids, glycols and isopropanol (Loveland Industries, Inc. Greeley, Colo., USA). The formulated compounds were applied in 1 mL of liquid through a SUJ2 atomizer nozzle with 1/8 JJ custom body (Spraying Systems Co., Wheaton, Ill., USA) positioned 1.27 cm (0.5 inches) above the top of each test unit. Test compounds were sprayed at 250 ppm and/or 50 ppm, and replicated three times. After spraying of the formulated test compound, each test unit was allowed to dry for 1 h and then a black, screened cap was placed on top. The test units were held for 6 days in a growth chamber at 25° C. and 70% relative humidity. Plant feeding damage was then visually assessed based on foliage consumed.
For evaluating control of potato leafhopper (Empoasca fabae) through contact and/or systemic means, the test unit consisted of a small open container with a 5-6-day-old Soleil bean plant (primary leaves emerged) inside. White sand was added to the top of the soil and one of the primary leaves was excised prior to application.
Test compounds were formulated and sprayed at 250 ppm and/or 50 ppm, and the tests were replicated three times as described for Test A. After spraying, the test units were allowed to dry for 1 h before they were post-infested with 5 potato leafhoppers (18-21-day-old adults). A black, screened cap was placed on the top of each test unit, and the test units were held for 6 days in a growth chamber at 24° C. and 70% relative humidity. Each test unit was then visually assessed for insect mortality.

For `COC(=O)C1CCN(Cc2cn(-c3cccc(Br)c3)nc2-c2ccccc2F)CC1` [Compound 132], the “control efficacy, very good to excellent: feeding damage (40% or less feeding damage and/or 100% mortality)” value ([1]; sprayed at 50 ppm) was ≤ 40% and the “control efficacy, very good to excellent: mortality” value ([2]; sprayed at 250 ppm) was ≥ 80%.
With `CC(=O)N(C)C1CCN(Cc2cn(-c3ccc(Cl)cc3)nc2-c2ccccc2F)CC1` [Compound 634] the “control efficacy, very good to excellent: feeding damage (40% or less feeding damage and/or 100% mortality)” value ([1]; sprayed at 50 ppm) was ≤ 40% and the “control efficacy, very good to excellent: mortality” value ([2]; sprayed at 250 ppm) was ≥ 80%.
In the case of `COC(=O)C1CCN(Cc2cn(-c3ccc(Cl)c(Cl)c3)nc2-c2ccc(F)cc2)CC1` [Compound 32], the “control efficacy, very good to excellent: feeding damage (40% or less feeding damage and/or 100% mortality)” value ([1]; sprayed at 50 ppm) is reported as ≤ 40%, the “control efficacy, very good to excellent: feeding damage (40% or less feeding damage and/or 100% mortality)” value ([1]; sprayed at 250 ppm) is reported as ≤ 40% and the “control efficacy, very good to excellent: mortality” value ([2]; sprayed at 250 ppm) is reported as ≥ 80%.
With `CC(=O)NCC1CCN(Cc2cn(-c3ccc(Cl)c(Cl)c3)nc2-c2ccccc2Cl)CC1` [Compound 124] the “control efficacy, very good to excellent: feeding damage (40% or less feeding damage and/or 100% mortality)” value ([1]; sprayed at 50 ppm) was ≤ 40% and the “control efficacy, very good to excellent: mortality” value ([2]; sprayed at 250 ppm) was ≥ 80%.
For `CC(=O)NC1CCN(Cc2cn(-c3ccc(Cl)c(F)c3)nc2-c2ccccc2Cl)CC1` [Compound 553], the “control efficacy, very good to excellent: feeding damage (40% or less feeding damage and/or 100% mortality)” value ([1]; sprayed at 50 ppm) was ≤ 40% and the “control efficacy, very good to excellent: mortality” value ([2]; sprayed at 250 ppm) was ≥ 80%.
`CC(=O)NC1CCN(Cc2cn(-c3ccc(Cl)c(F)c3)nc2-c2ccccc2F)CC1` [Compound 549] was tested, and the “control efficacy, very good to excellent: feeding damage (40% or less feeding damage and/or 100% mortality)” value ([1]; sprayed at 50 ppm) was ≤ 40%, the “control efficacy, very good to excellent: mortality” value ([2]; sprayed at 50 ppm) was ≥ 80% and the “control efficacy, very good to excellent: mortality” value ([2]; sprayed at 250 ppm) was ≥ 80%.
`CC(=O)NC1CCN(Cc2cn(-c3cccc(Cl)c3)nc2-c2ccccc2F)CC1` [Compound 109] was tested, and the “control efficacy, very good to excellent: feeding damage (40% or less feeding damage and/or 100% mortality)” value ([1]; sprayed at 50 ppm) was ≤ 40% and the “control efficacy, very good to excellent: mortality” value ([2]; sprayed at 250 ppm) was ≥ 80%.
With `CC(=O)NC1CCN(Cc2cn(-c3ccc(Cl)c(Cl)c3)nc2-c2ccccc2C(F)(F)F)CC1` [Compound 117] the “control efficacy, very good to excellent: feeding damage (40% or less feeding damage and/or 100% mortality)” value ([1]; sprayed at 50 ppm) was ≤ 40% and the “control efficacy, very good to excellent: mortality” value ([2]; sprayed at 250 ppm) was ≥ 80%.
In the case of `COC(=O)C1CCN(Cc2cn(-c3ccc(F)c(F)c3)nc2-c2ccccc2F)CC1` [Compound 95], the “control efficacy, very good to excellent: feeding damage (40% or less feeding damage and/or 100% mortality)” value ([1]; sprayed at 50 ppm) is reported as ≤ 40% and the “control efficacy, very good to excellent: mortality” value ([2]; sprayed at 250 ppm) is reported as ≥ 80%.
For `CC(=O)NC1CCN(Cc2cn(-c3cccc(C(F)(F)F)c3)nc2-c2ccccc2F)CC1` [Compound 74], the “control efficacy, very good to excellent: feeding damage (40% or less feeding damage and/or 100% mortality)” value ([1]; sprayed at 50 ppm) was ≤ 40%, the “control efficacy, very good to excellent: feeding damage (40% or less feeding damage and/or 100% mortality)” value ([1]; sprayed at 250 ppm) was ≤ 40% and the “control efficacy, very good to excellent: mortality” value ([2]; sprayed at 50 ppm) was ≥ 80%. The “control efficacy, very good to excellent: mortality” value ([2]; sprayed at 250 ppm) was ≥ 80%.
In the case of `CC(=O)NC1CCN(Cc2cn(-c3ccc(C(F)(F)F)cn3)nc2-c2ccccc2F)CC1` [Compound 106], the “control efficacy, very good to excellent: feeding damage (40% or less feeding damage and/or 100% mortality)” value ([1]; sprayed at 50 ppm) is reported as ≤ 40%, the “control efficacy, very good to excellent: mortality” value ([2]; sprayed at 50 ppm) is reported as ≥ 80% and the “control efficacy, very good to excellent: mortality” value ([2]; sprayed at 250 ppm) is reported as ≥ 80%.
`CC(=O)NC1CCN(Cc2cn(-c3ccc(C(F)(F)F)cc3)nc2-c2ccccc2F)CC1` [Compound 59] was tested, and the “control efficacy, very good to excellent: feeding damage (40% or less feeding damage and/or 100% mortality)” value ([1]; sprayed at 50 ppm) was ≤ 40%, the “control efficacy, very good to excellent: feeding damage (40% or less feeding damage and/or 100% mortality)” value ([1]; sprayed at 250 ppm) was ≤ 40% and the “control efficacy, very good to excellent: mortality” value ([2]; sprayed at 250 ppm) was ≥ 80%.
`CC(=O)NC1CCN(Cc2cn(-c3ccc(Cl)c(Cl)c3)nc2-c2ccccc2Cl)CC1` [Compound 107] was tested, and the “control efficacy, very good to excellent: feeding damage (40% or less feeding damage and/or 100% mortality)” value ([1]; sprayed at 50 ppm) was ≤ 40%, the “control efficacy, very good to excellent: mortality” value ([2]; sprayed at 50 ppm) was ≥ 80% and the “control efficacy, very good to excellent: mortality” value ([2]; sprayed at 250 ppm) was ≥ 80%.
For `CNC(=O)C1CCN(Cc2cn(-c3cccc(Br)c3)nc2-c2ccccc2F)CC1` [Compound 135], the “control efficacy, very good to excellent: feeding damage (40% or less feeding damage and/or 100% mortality)” value ([1]; sprayed at 50 ppm) was ≤ 40% and the “control efficacy, very good to excellent: mortality” value ([2]; sprayed at 250 ppm) was ≥ 80%.
In the case of `COC(=O)C1CCN(Cc2cn(-c3cc(C(F)(F)F)cc(C(F)(F)F)c3)nc2-c2ccc(F)cc2)CC1` [Compound 34], the “control efficacy, very good to excellent: feeding damage (40% or less feeding damage and/or 100% mortality)” value ([1]; sprayed at 250 ppm) is reported as ≤ 40% and the “control efficacy, very good to excellent: mortality” value ([2]; sprayed at 250 ppm) is reported as ≥ 80%.
For `COC(=O)C1CCN(Cc2cn(-c3ccc(F)c(Cl)c3)nc2-c2ccccc2F)CC1` [Compound 45], the “control efficacy, very good to excellent: feeding damage (40% or less feeding damage and/or 100% mortality)” value ([1]; sprayed at 50 ppm) was ≤ 40%, the “control efficacy, very good to excellent: feeding damage (40% or less feeding damage and/or 100% mortality)” value ([1]; sprayed at 250 ppm) was ≤ 40% and the “control efficacy, very good to excellent: mortality” value ([2]; sprayed at 250 ppm) was ≥ 80%.
In the case of `COC(=O)C1CCN(Cc2cn(-c3ccc(Cl)c(F)c3)nc2-c2ccccc2Cl)CC1` [Compound 551], the “control efficacy, very good to excellent: feeding damage (40% or less feeding damage and/or 100% mortality)” value ([1]; sprayed at 50 ppm) is reported as ≤ 40% and the “control efficacy, very good to excellent: mortality” value ([2]; sprayed at 250 ppm) is reported as ≥ 80%.
With `COC(=O)C1CCN(Cc2cn(-c3cccc(C(F)(F)F)c3)nc2-c2ccccc2F)CC1` [Compound 72] the “control efficacy, very good to excellent: feeding damage (40% or less feeding damage and/or 100% mortality)” value ([1]; sprayed at 50 ppm) was ≤ 40%, the “control efficacy, very good to excellent: feeding damage (40% or less feeding damage and/or 100% mortality)” value ([1]; sprayed at 250 ppm) was ≤ 40% and the “control efficacy, very good to excellent: mortality” value ([2]; sprayed at 250 ppm) was ≥ 80%.
For `CC(=O)NC1CCN(Cc2cn(-c3ccc(OC(F)(F)F)cc3)nc2-c2ccccc2C)CC1` [Compound 560], the “control efficacy, very good to excellent: feeding damage (40% or less feeding damage and/or 100% mortality)” value ([1]; sprayed at 50 ppm) was ≤ 40% and the “control efficacy, very good to excellent: mortality” value ([2]; sprayed at 250 ppm) was ≥ 80%.
`COC(=O)C1CCN(Cc2cn(-c3cccc(C(F)(F)F)c3)nc2-c2ccc(F)cc2)CC1` [Compound 11] was tested, and the “control efficacy, very good to excellent: feeding damage (40% or less feeding damage and/or 100% mortality)” value ([1]; sprayed at 50 ppm) was ≤ 40%, the “control efficacy, very good to excellent: feeding damage (40% or less feeding damage and/or 100% mortality)” value ([1]; sprayed at 250 ppm) was ≤ 40% and the “control efficacy, very good to excellent: mortality” value ([2]; sprayed at 250 ppm) was ≥ 80%.
With `CC(=O)N[C@H]1CCN(Cc2cn(-c3ccc(Cl)cn3)nc2-c2c(F)cccc2F)C1` [Compound 892] the “control efficacy, very good to excellent: feeding damage (40% or less feeding damage and/or 100% mortality)” value ([1]; sprayed at 50 ppm) was ≤ 40%, the “control efficacy, very good to excellent: mortality” value ([2]; sprayed at 50 ppm) was ≥ 80% and the “control efficacy, very good to excellent: mortality” value ([2]; sprayed at 250 ppm) was ≥ 80%.
In the case of `O=c1[nH]nc(C2CCN(Cc3cn(-c4ccc(Cl)cc4)nc3-c3c(F)cc(F)cc3F)CC2)o1` [Compound 793], the “control efficacy, very good to excellent: feeding damage (40% or less feeding damage and/or 100% mortality)” value ([1]; sprayed at 50 ppm) is reported as ≤ 40% and the “control efficacy, very good to excellent: mortality” value ([2]; sprayed at 250 ppm) is reported as ≥ 80%.
In the case of `CCOC(=O)C1CCN(Cc2cn(-c3ccc(Cl)c(Cl)c3)nc2-c2ccccc2F)CC1` [Compound 22], the “control efficacy, very good to excellent: feeding damage (40% or less feeding damage and/or 100% mortality)” value ([1]; sprayed at 50 ppm) is reported as ≤ 40%, the “control efficacy, very good to excellent: feeding damage (40% or less feeding damage and/or 100% mortality)” value ([1]; sprayed at 250 ppm) is reported as ≤ 40% and the “control efficacy, very good to excellent: mortality” value ([2]; sprayed at 250 ppm) is reported as ≥ 80%.
For `FC(F)(F)Oc1ccc(-n2cc(CN3CCOCC3)c(-c3ccccc3Cl)n2)cc1` [Compound 558], the “control efficacy, very good to excellent: feeding damage (40% or less feeding damage and/or 100% mortality)” value ([1]; sprayed at 50 ppm) was ≤ 40% and the “control efficacy, very good to excellent: mortality” value ([2]; sprayed at 250 ppm) was ≥ 80%.
For `COC(=O)C1CCN(Cc2cn(-c3nccc(C(F)(F)F)n3)nc2-c2ccccc2F)CC1` [Compound 47], the “control efficacy, very good to excellent: feeding damage (40% or less feeding damage and/or 100% mortality)” value ([1]; sprayed at 50 ppm) was ≤ 40%, the “control efficacy, very good to excellent: feeding damage (40% or less feeding damage and/or 100% mortality)” value ([1]; sprayed at 250 ppm) was ≤ 40% and the “control efficacy, very good to excellent: mortality” value ([2]; sprayed at 250 ppm) was ≥ 80%.
For `COC(=O)C1CCN(Cc2cn(-c3ccc(Cl)c(F)c3)nc2-c2ccccc2F)CC1` [Compound 547], the “control efficacy, very good to excellent: feeding damage (40% or less feeding damage and/or 100% mortality)” value ([1]; sprayed at 50 ppm) was ≤ 40% and the “control efficacy, very good to excellent: mortality” value ([2]; sprayed at 250 ppm) was ≥ 80%.
`CC(=O)NC1CCN(Cc2cn(-c3ccc(Cl)cc3)nc2-c2ccccc2F)CC1` [Compound 76] was tested, and the “control efficacy, very good to excellent: feeding damage (40% or less feeding damage and/or 100% mortality)” value ([1]; sprayed at 50 ppm) was ≤ 40%, the “control efficacy, very good to excellent: feeding damage (40% or less feeding damage and/or 100% mortality)” value ([1]; sprayed at 250 ppm) was ≤ 40% and the “control efficacy, very good to excellent: mortality” value ([2]; sprayed at 50 ppm) was ≥ 80%. For the same compound, the “control efficacy, very good to excellent: mortality” value ([2]; sprayed at 250 ppm) was ≥ 80%.
For `N#Cc1ccc(-n2cc(CN3CCC(C#N)CC3)c(-c3ccccc3F)n2)cc1C(F)(F)F` [Compound 99], the “control efficacy, very good to excellent: feeding damage (40% or less feeding damage and/or 100% mortality)” value ([1]; sprayed at 50 ppm) was ≤ 40% and the “control efficacy, very good to excellent: mortality” value ([2]; sprayed at 250 ppm) was ≥ 80%.

Source: US9113631B2, “1,3-diaryl-substituted heterocyclic pesticides” (E I DU PONT DE NEMOURS AND COMPANY, priority 2011, dated 2015)
